Sequences of proteins named here, by UniProt entry; tags and fusion partners are left off.
UniProt Q13936, whole entry: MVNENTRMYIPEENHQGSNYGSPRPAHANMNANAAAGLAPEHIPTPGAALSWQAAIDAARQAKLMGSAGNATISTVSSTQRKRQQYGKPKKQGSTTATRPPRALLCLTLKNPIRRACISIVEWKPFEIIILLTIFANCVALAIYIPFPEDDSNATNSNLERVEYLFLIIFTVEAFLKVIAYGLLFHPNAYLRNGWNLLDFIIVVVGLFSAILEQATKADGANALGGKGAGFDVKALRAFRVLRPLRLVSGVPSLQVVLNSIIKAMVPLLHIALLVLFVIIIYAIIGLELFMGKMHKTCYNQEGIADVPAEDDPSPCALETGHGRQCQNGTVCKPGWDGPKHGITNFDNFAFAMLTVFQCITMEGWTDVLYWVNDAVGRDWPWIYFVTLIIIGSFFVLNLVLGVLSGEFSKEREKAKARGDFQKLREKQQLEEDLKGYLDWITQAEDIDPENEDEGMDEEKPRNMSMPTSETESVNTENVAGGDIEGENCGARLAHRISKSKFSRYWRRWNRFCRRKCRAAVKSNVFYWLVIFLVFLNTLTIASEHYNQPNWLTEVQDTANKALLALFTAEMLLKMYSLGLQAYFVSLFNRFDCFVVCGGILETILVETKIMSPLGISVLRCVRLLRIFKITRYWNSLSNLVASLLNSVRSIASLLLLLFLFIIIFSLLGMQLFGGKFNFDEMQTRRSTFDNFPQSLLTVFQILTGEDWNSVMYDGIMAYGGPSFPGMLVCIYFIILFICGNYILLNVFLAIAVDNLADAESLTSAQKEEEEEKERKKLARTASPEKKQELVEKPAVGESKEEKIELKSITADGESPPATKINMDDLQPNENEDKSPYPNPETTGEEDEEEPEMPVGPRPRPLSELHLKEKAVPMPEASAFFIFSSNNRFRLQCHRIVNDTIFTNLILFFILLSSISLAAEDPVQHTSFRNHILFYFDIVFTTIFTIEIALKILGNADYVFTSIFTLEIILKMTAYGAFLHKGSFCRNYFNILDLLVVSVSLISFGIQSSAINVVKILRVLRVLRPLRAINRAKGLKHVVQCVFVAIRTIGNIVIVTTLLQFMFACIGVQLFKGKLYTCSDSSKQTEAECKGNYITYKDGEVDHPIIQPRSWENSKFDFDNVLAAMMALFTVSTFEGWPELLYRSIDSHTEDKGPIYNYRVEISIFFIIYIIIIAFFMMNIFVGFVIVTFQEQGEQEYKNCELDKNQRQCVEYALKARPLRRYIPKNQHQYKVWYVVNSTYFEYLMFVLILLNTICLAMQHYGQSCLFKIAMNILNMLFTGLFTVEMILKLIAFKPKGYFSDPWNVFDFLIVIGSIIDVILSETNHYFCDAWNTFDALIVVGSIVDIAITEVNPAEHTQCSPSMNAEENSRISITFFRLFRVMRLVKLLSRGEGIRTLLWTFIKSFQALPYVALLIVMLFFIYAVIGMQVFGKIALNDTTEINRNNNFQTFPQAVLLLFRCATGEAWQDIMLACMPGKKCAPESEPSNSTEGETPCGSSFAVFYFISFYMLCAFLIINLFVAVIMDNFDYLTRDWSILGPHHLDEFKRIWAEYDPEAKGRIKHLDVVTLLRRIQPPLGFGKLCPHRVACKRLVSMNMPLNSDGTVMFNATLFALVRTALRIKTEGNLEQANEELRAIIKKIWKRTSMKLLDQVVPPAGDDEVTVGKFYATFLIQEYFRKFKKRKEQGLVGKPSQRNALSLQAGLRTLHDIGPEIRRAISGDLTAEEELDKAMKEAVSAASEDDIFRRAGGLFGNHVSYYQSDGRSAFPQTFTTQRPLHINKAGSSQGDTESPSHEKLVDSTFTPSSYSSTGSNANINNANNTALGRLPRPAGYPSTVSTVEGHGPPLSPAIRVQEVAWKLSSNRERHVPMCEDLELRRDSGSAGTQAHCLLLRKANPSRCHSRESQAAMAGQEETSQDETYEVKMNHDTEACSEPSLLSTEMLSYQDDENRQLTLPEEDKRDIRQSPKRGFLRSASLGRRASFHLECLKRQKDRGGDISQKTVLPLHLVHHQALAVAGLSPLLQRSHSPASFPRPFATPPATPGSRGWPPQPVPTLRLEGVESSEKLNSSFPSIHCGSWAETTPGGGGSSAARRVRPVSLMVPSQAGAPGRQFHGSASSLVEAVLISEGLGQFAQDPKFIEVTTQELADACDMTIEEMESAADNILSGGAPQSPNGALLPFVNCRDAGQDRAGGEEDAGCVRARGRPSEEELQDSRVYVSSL

According to article PMC10762068, “Selective blockade of Cav1.2 (α1C) versus Cav1.3 (α1D) L-type calcium channels by the black mamba toxin calciseptine” (Nature Communications, 2024):

Tests used:
[1] = tested on: Cav1.2 (ICav1.2) in isolated adult mouse ventricular myocytes; assay type: cell-based
[2] = target: T1, Cav1.2 (Homo sapiens, UniProt Q13936); assay type: cell-based
T1 construct: expressed in transfected cells; host or cells: HEK-293T
Protocol: HEK-293T (RRID:CVCL_2737) were obtained from the European Collection of Authenticated Cell Cultures (ECACC 96121229). The identity of HEK-293T has been confirmed by STR profiling and the cells have been eradicated from mycoplasma at ECACC. We routinely tested the cells for the absence of the mycoplasma contamination. Cells were cultivated at 37 °C in DMEM supplemented with GlutaMax, 10% fetal bovine serum and 1% penicillin/streptomycin (Invitrogen, Fisher Scientific, France). Transfections were performed using jet-PEI (Ozyme, France) with a DNA mix containing either the plasmids that code for Cav1.2-GFP, β2a and α2δ (0.8 µg of each) or either the plasmids that code for Cav1.3 (with and without exon 42a), or Cav2.1, or either Cav2.2 combined with β2a and α2δ (0.8 µg of each supplemented with 0.025 µg of a plasmid coding for GFP). For Cav3.1 expression β2a and α2δ subunits were omitted. Plasmids coding for β2a, α2δ and Cav1.3 were created as described previously. […]
Macroscopic currents in HEK-293T cells were recorded at room temperature using an Axopatch 200B or Multiclamp 700B patchclamp amplifier (Molecular Devices, Sunnyvale CA). […]
In all experiments of cellular electrophysiology, we employed synthetized analog of Cas, commercially available at Latoxan (ID: L8109). […] Its measured molecular mass (7036.26 Da average) was in accordance with the mass calculated from sequence data (7036.22 Da).

SMILES: COC(=O)C1=C(C)NC(C)=C(C(=O)OC)C1c1ccccc1[N+](=O)[O-] [nifedipine, reference compound]
- block of residual Ca2+ current by nifedipine after Cas [1]: blocked residual Ca^2+ current
- effect of nifedipine after Cas 1 µM [1]: failed to have an effect
- inhibition of ICav1.2 elicited at +150 mV [2]: partially inhibited
